Record: PubChem BioAssay AID743121 (NCATS, 2013)
The deposit covers about 26,000 reagents; this is an unselected part. 167 of all reagents (0.63%) were called active. 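Calls are per gene from RSA p-values that are not deposited; an individual active-marked siRNA can sensitise only weakly.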 Entries without a mark were called inactive. The numbers tell different reagents against one gene apart.

- Assay: 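Genes whose silencing strengthens cell killing by camptothecin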 (primary screen)
- System: MDA-MB-231 cells, a human breast cancer line
- Reagents: single siRNA against human genes, 20 nM siRNA (0.8 pmol per well)
- Time to read-out: 120 h (drug added 48 h after transfection, read 72 h later)
- Challenge: camptothecin 20 nM (about EC30) for 72 h; vehicle 0.1% DMSO in parallel plates
- Measured: 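CellTiter-Glo ATP signal, scaled to control siRNA as percent viability; sensitisation given as log2 of untreated divided by camptothecin-treated viability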
- Scale: log2 vehicle/camptothecin viability: higher = stronger sensitisation to camptothecin; viability with camptothecin and viability without drug: higher = more viable cells
- Call rule: 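Active genes have an RSA gene-level p-value below 0.001, computed from the ratios of their separate siRNAs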

gene knocked down | reagent | log2 vehicle/camptothecin viability | viability with camptothecin (% of control) | viability without drug (% of control)
DAG1 | 1 | -0.0673 | 91.6 | 87.4
DAG1 | 2 | -0.47 | 69.7 | 50.4
DAG1 | 3 | 0.000556 | 96.5 | 96.6
DAG1 | 4 | 0.119 | 37.5 | 40.7
CYCS | 1 | -0.339 | 87.9 | 69.4
CYCS | 2 | -0.624 | 103 | 66.7
CYCS | 3 | 0.0915 | 41.9 | 44.6
CYCS | 4 | -0.184 | 82.7 | 72.8
CYCS | 5 | -0.337 | 54.9 | 43.5
GPS1 | 1 | 0.147 | 33.7 | 37.3
GPS1 | 2 | 0.0939 | 94.8 | 101
GPS1 | 3 | 0.542 | 42.2 | 61.5
GPS1 | 4 | 0.183 | 60.1 | 68.2
MID2 | 1 | -0.324 | 52.7 | 42.1
MID2 | 2 | -0.888 | 61.2 | 33
MID2 | 3 | -0.246 | 79.1 | 66.7
MID2 | 4 | 0.0764 | 57.6 | 60.8
ABCG5 | 1 | -0.0478 | 45.7 | 44.2
ABCG5 | 2 | -0.0485 | 49.3 | 47.6
ABCG5 | 3 | -0.0789 | 101 | 95.6
ABCG5 | 4 | 0.173 | 66.5 | 74.9
MKI67 | 1 | 0.0288 | 88.5 | 90.3
MKI67 | 2 | 0.223 | 42.8 | 49.9
MKI67 | 3 | -0.318 | 88.3 | 70.8
MKI67 | 4 | -0.316 | 86.9 | 69.8
IL1RAPL2 | 1 | -0.262 | 94.9 | 79.2
IL1RAPL2 | 2 | -0.0887 | 87.7 | 82.5
IL1RAPL2 | 3 | -0.154 | 93.9 | 84.4
IL1RAPL2 | 4 | -0.058 | 66.9 | 64.3
SERPINB13 | 1 | -0.0155 | 99.4 | 98.4
SERPINB13 | 2 | -0.224 | 66.2 | 56.7
SERPINB13 | 3 | 0.347 | 24.7 | 31.5
SERPINB13 | 4 | -0.21 | 108 | 93.5
HSD17B6 | 1 | -0.0457 | 80.4 | 77.9
HSD17B6 | 2 | 0.602 | 54.9 | 83.4
HSD17B6 | 3 | -0.466 | 47 | 34
HSD17B6 | 4 | -0.237 | 76.7 | 65.1
ARIH2 | 1 | 0.095 | 84.8 | 90.6
ARIH2 | 2 | -0.294 | 63 | 51.4
ARIH2 | 3 | 0.329 | 39.6 | 49.7
ARIH2 | 4 | -0.0693 | 84.1 | 80.1
PRSS16 | 1 | -0.394 | 115 | 87.6
PRSS16 | 2 | -0.169 | 105 | 93.5
PRSS16 | 3 | -0.0236 | 46.5 | 45.8
PRSS16 | 4 | -0.117 | 111 | 102
TMX1 | 1 | 0.00911 | 94 | 94.6
TMX1 | 2 | -0.183 | 96.2 | 84.7
TMX1 | 3 | -0.117 | 98.2 | 90.6
TMX1 | 4 | 0.0279 | 37.2 | 37.9
SUV39H2 | 1 | -0.034 | 81.7 | 79.8
SUV39H2 | 2 | -0.369 | 111 | 86.3
SUV39H2 | 3 | 0.0155 | 101 | 102
SUV39H2 | 4 | -0.201 | 94.5 | 82.2
APEH | 1 | -0.36 | 30.6 | 23.8
APEH | 2 | 0.0575 | 73.8 | 76.8
APEH | 3 | -0.0661 | 39.2 | 37.4
APEH | 4 | 0.00286 | 100 | 100
CD163L1 | 1 | -0.192 | 62 | 54.3
CD163L1 | 2 | 0.358 | 58.4 | 74.8
CD163L1 | 3 | -0.0887 | 79.7 | 74.9
CD163L1 | 4 | 0.13 | 90.6 | 99.1
CIB2 | 1 | -0.388 | 108 | 82.2
CIB2 | 2 | -0.425 | 63.4 | 47.2
CIB2 | 3 | 0.126 | 74.3 | 81.1
CIB2 | 4 | -0.235 | 103 | 87.6
PYGO2 | 1 | -0.553 | 57.7 | 39.3
PYGO2 | 2 | -0.241 | 97.2 | 82.2
PYGO2 | 3 | -0.737 | 75 | 45
PYGO2 | 4 | -0.374 | 45.9 | 35.4

Reformatted: 11 of the entries above.
SUV39H2 #3 | log2 vehicle/camptothecin viability = 0.0155; viability with camptothecin (% of control) = 101; viability without drug (% of control) = 102
SUV39H2 #4 | log2 vehicle/camptothecin viability = -0.201; viability with camptothecin (% of control) = 94.5; viability without drug (% of control) = 82.2
APEH #1 | log2 vehicle/camptothecin viability = -0.36; viability with camptothecin (% of control) = 30.6; viability without drug (% of control) = 23.8
APEH #2 | log2 vehicle/camptothecin viability = 0.0575; viability with camptothecin (% of control) = 73.8; viability without drug (% of control) = 76.8
APEH #3 | log2 vehicle/camptothecin viability = -0.0661; viability with camptothecin (% of control) = 39.2; viability without drug (% of control) = 37.4
APEH #4 | log2 vehicle/camptothecin viability = 0.00286; viability with camptothecin (% of control) = 100; viability without drug (% of control) = 100
CD163L1 #1 | log2 vehicle/camptothecin viability = -0.192; viability with camptothecin (% of control) = 62; viability without drug (% of control) = 54.3
CD163L1 #2 | log2 vehicle/camptothecin viability = 0.358; viability with camptothecin (% of control) = 58.4; viability without drug (% of control) = 74.8
CD163L1 #3 | log2 vehicle/camptothecin viability = -0.0887; viability with camptothecin (% of control) = 79.7; viability without drug (% of control) = 74.9
CD163L1 #4 | log2 vehicle/camptothecin viability = 0.13; viability with camptothecin (% of control) = 90.6; viability without drug (% of control) = 99.1
CIB2 #1 | log2 vehicle/camptothecin viability = -0.388; viability with camptothecin (% of control) = 108; viability without drug (% of control) = 82.2
